# Where a name gives a salt, the structure may show the parent alone. ± gives the standard deviation of the averaged measurements. The list shows a part of the results. Values are raw readings; no control value is given beside them.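 The yeast community starts from one strain carrying four plasmids, each with an amino-acid or uracil synthesis gene and a fluorescent protein. Random plasmid loss creates mixed prototroph and auxotroph subpopulations. Cells were fixed and counted by automated confocal fluorescence imaging, and DMSO-treated wells served as the vehicle reference.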
# Tested on: Saccharomyces cerevisiae BY4741 SeMeCo community
# Experiment: imaged cell count per well (cells); higher = more cells
# Details: 10 µM; 24 h; SM minimal medium
# Description: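 Same SeMeCo high-content imaging drug screen: Selleck FDA-approved drugs at 10 µM, 24 h in SM medium, 384-well plates, 3 replicates.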
row,Compound,imaged cell count per well
1,CCC(=O)c1c(O)cc(O)cc1O [Flopropione],19900 ± 9400
2,COc1ccnc(C[S+]([O-])c2nc3cc(OC(F)F)ccc3[nH]2)c1OC (configuration not stated) [Pantoprazole sodium],21100 ± 11000
3,Fc1ccc([C@@H]2CCNC[C@H]2COc2ccc3c(c2)OCO3)cc1 [Paroxetine mesylate],24600 ± 4800
4,CC(C)c1c(C(=O)Nc2ccccc2)c(-c2ccccc2)c(-c2ccc(F)cc2)n1CC[C@@H](O)C[C@@H](O)CC(=O)O [Atorvastatin],17400 ± 1100
5,OCc1ccccc1O[C@@H]1O[C@H](CO)[C@@H](O)[C@H](O)[C@H]1O [Salicin],26200 ± 1100
6,O=C1NC(=O)C(c2ccccc2)(c2ccccc2)N1 [Phenytoin],23500 ± 4000
7,Clc1ccc(C(Cn2ccnc2)OCc2c(Cl)cccc2Cl)c(Cl)c1 (configuration not stated) [Isoconazole nitrate],3100 ± 460
8,C[N+]1(C)CCC(=C(c2ccccc2)c2ccccc2)CC1 [Diphemanil Methylsulfate],20800 ± 8100
9,CCCN1CCCC[C@H]1C(=O)Nc1c(C)cccc1C [Ropivacaine],27300 ± 2600
10,COCCCOc1ccnc(C[S+]([O-])c2nc3ccccc3[nH]2)c1C (configuration not stated) [Rabeprazole],23200 ± 6100
11,O=C(c1ccc(F)cc1)C1CCN(CCn2c(=O)[nH]c3ccccc3c2=O)CC1 [Ketanserin],23100 ± 2400
12,O=C(c1ccccc1)c1ccc2n1CCC2C(=O)O (configuration not stated) [Ketorolac tromethamine salt],26700 ± 1900
13,Cc1ccc(S(=O)(=O)NC(=O)NN2CC3CCCC3C2)cc1 (configuration not stated) [Gliclazide],20300 ± 3300
14,Cc1cc(C)nc(NS(=O)(=O)c2ccc(N)cc2)n1 [Sulfamethazine],23600 ± 4500
15,CC(=O)[O-].[K+] [Potassium acetate],23100 ± 3800
16,NCCc1ccc(O)c(O)c1 [Dopamine HCl],26800 ± 6400
17,CC[C@H](C)C(=O)O[C@H]1C[C@H](O)C=C2C=C[C@H](C)[C@H](CC[C@@H](O)C[C@@H](O)CC(=O)O)[C@H]21 [Pravastatin],27700 ± 3200
18,CC(=O)NS(=O)(=O)c1ccc(N)cc1 [Sulfacetamide Sodium],26600 ± 9800
19,COc1cc2c(cc1OC)[C@@H]1Cc3ccc(OC)c(OC)c3CN1CC2 [Rotundine],19600 ± 3000
20,CN[C@@H]1[C@@H](O)[C@@H](O[C@@H]2[C@@H](O)[C@H](O[C@H]3O[C@H](CN)[C@@H](O)[C@H](O)[C@H]3O)[C@@H](N)C[C@H]2NC(=O)[C@@H](O)CN)OC[C@]1(C)O [Isepamicin Sulphate],22600 ± 5000
21,Nc1ccc(S(=O)(=O)Nc2ccnn2-c2ccccc2)cc1 [Sulfaphenazole],19200 ± 4400
22,COc1ccc(Cc2cnc(N)nc2N)cc1OC [Diaveridine],24500 ± 5800
23,NC12CC3CC(CC(C3)C1)C2 [Amantadine],32330 ± 220
24,O=C(O)C1=C(CSc2nnnn2CS(=O)(=O)O)CS[C@@H]2[C@H](NC(=O)[C@H](O)c3ccccc3)C(=O)N12 [Cefonicid sodium],25700 ± 4700
25,CN(C/C=C/C#CC(C)(C)C)Cc1cccc2ccccc12 [Terbinafine HCl],21900 ± 3600
26,CN[C@@H]1[C@@H](O)[C@@H](O[C@@H]2[C@@H](O)[C@H](O[C@H]3OC(CN)=CC[C@H]3N)[C@@H](N)C[C@H]2N)OC[C@]1(C)O [Sisomicin sulfate],19100 ± 7400
27,CO/N=C(\C(=O)N[C@@H]1C(=O)N2C(C(=O)O)=CCS[C@H]12)c1csc(N)n1 [Ceftizoxime],23400 ± 4300

# Quoted at random: 2 records from the list
row,Compound,imaged cell count per well
23,NC12CC3CC(CC(C3)C1)C2 [Amantadine],32330 ± 220
11,O=C(c1ccc(F)cc1)C1CCN(CCn2c(=O)[nH]c3ccccc3c2=O)CC1 [Ketanserin],23100 ± 2400

# Source: the supplement of paper PMC8975748
